Measured values reported in publication PMC8998810.

biological target: T1, BD-RIN4 (full-length RIN4 fused with the GAL4 DNA-binding domain) (Arabidopsis) (UniProt Q8GYN5); experiment: two-hybrid; yeast two-hybrid, strain MaV203; BD-RIN4 and AD-AHAs co-transformed; growth on SC/-Leu-Trp-His with 3-AT; empty AD and BD as negative controls
T1 sequence: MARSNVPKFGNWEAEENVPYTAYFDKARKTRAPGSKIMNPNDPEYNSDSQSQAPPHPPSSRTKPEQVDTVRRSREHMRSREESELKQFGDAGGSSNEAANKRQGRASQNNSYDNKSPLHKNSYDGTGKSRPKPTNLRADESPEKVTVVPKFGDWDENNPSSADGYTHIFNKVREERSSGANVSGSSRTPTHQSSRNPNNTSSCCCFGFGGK

binding | Substance
binds | AD-AHA5 (terminal fragment of AHA5 fused with the GAL4 activation domain) (Arabidopsis) (domain or fragment)
binds | AD-AHA1 (terminal fragment of AHA1 fused with the GAL4 activation domain) (Arabidopsis) (domain or fragment)
binds | AD-AHA2 (terminal fragment of AHA2 fused with the GAL4 activation domain) (Arabidopsis) (domain or fragment)

These are yes or no findings as the source states them, for the method shown. A result given as binding can be weak or reduced; the word gives no strength. Where a sequence is shown, tags or fusion partners need not be part of it.
